Assay in all cases: log2 fold change, soluble protein after heating vs DMSO (PISA); higher = thermal stabilisation; K562 lysate, 10 uM; active = over 0.2 and 3.5 SD of the protein, either way, in both replicates (recomputed)
Compound in one assay: Cc1cn(-c2cc(NC(=O)c3ccc(C)c(Nc4nccc(-c5cccnc5)n4)c3)cc(C(F)(F)F)c2)cn1 [nilotinib]
Put shortly:
(§1)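 To prepare the extract, K562 pellets were dounce-homogenised in PBS pH 7.4 with 1 mM MgCl2, giving crude material at 1 mg/mL protein. This was treated with 10 μM compound for 30 min, then heated in aliquots for 3 min over 48°C-58°C before pooling and addition of NP-40 to 0.5% at 4°C. Centrifugation at 21,000xg for 90 min left soluble protein in the supernatant, which TMTpro 16plex LC-MS/MS quantified with equalised channel sums. Results are log-two fold changes in thermal stability compared with solvent controls, from duplicates.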

Protein sequences, listed by entry. Tags and fused reporters are not part of them. Lines headed by an entry give the natural chain unless they say otherwise; changes in a name come on top.
UniProt Q13492: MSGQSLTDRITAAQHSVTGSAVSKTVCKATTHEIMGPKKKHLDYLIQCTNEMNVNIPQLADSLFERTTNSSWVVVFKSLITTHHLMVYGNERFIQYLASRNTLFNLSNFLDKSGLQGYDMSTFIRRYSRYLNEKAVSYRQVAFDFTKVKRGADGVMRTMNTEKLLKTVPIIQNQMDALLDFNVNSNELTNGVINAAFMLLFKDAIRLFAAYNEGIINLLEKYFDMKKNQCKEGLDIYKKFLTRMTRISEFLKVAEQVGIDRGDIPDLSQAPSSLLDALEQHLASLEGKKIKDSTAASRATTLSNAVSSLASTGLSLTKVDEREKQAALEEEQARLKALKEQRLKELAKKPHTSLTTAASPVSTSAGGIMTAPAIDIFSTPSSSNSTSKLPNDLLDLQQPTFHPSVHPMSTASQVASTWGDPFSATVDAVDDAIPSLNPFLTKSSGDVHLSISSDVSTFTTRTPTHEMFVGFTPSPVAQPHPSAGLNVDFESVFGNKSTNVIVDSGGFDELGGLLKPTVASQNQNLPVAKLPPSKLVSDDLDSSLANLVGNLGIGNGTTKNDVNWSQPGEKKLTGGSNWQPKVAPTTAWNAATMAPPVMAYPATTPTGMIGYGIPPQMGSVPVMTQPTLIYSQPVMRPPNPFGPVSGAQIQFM
UniProt P15735: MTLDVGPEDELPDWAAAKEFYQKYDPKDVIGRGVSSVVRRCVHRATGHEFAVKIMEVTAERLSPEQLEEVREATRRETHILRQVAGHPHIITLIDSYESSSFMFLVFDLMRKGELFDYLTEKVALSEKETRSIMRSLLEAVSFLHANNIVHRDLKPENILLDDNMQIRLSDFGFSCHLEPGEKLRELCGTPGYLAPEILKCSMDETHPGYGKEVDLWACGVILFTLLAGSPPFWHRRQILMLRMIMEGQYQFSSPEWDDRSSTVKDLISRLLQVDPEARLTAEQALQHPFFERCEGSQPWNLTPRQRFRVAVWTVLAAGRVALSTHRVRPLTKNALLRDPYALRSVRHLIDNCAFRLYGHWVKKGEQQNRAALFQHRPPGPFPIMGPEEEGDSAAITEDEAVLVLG
UniProt Q8WUB8: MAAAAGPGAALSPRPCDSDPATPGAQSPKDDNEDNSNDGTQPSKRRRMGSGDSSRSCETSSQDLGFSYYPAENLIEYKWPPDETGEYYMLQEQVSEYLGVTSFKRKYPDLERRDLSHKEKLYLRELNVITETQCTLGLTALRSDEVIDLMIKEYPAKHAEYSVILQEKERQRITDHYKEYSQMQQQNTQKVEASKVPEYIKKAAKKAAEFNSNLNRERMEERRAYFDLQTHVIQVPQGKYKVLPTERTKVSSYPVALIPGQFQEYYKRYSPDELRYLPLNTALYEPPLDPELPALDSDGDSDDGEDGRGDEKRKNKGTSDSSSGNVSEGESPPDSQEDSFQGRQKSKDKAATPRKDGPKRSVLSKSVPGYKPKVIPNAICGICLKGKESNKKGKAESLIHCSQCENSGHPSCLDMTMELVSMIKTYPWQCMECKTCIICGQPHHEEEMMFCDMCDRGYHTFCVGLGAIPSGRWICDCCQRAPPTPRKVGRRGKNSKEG
UniProt Q00722, whole entry, looked up: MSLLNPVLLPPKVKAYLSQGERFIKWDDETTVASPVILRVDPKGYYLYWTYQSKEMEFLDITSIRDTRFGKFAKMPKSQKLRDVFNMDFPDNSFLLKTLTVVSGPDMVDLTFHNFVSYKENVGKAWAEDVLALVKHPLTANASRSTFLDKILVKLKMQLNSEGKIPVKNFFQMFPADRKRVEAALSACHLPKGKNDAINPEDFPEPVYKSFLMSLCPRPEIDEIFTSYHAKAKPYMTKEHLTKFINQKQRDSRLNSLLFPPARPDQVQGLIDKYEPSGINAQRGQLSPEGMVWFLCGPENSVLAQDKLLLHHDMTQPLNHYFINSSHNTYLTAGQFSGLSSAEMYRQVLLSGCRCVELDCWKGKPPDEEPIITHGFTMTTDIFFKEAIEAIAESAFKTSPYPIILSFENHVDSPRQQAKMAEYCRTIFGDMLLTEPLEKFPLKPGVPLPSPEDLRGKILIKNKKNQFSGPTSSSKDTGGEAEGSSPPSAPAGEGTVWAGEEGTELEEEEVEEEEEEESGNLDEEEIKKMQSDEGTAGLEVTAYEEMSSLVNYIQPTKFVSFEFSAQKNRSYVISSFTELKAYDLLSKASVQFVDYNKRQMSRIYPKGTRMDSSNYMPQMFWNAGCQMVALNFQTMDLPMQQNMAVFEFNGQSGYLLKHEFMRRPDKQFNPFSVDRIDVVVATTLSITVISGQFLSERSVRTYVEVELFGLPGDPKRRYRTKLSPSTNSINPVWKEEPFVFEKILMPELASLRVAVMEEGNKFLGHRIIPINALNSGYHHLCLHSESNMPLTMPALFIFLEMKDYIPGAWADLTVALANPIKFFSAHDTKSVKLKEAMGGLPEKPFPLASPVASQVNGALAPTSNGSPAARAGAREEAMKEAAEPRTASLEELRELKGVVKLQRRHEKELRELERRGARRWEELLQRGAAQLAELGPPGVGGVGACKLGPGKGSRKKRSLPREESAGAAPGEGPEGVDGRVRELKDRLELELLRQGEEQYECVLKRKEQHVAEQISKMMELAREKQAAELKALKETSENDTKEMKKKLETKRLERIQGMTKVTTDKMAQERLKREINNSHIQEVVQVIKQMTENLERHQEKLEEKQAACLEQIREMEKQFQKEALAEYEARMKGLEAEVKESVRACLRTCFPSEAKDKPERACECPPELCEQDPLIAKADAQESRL
UniProt Q9NRD5, whole entry, looked up: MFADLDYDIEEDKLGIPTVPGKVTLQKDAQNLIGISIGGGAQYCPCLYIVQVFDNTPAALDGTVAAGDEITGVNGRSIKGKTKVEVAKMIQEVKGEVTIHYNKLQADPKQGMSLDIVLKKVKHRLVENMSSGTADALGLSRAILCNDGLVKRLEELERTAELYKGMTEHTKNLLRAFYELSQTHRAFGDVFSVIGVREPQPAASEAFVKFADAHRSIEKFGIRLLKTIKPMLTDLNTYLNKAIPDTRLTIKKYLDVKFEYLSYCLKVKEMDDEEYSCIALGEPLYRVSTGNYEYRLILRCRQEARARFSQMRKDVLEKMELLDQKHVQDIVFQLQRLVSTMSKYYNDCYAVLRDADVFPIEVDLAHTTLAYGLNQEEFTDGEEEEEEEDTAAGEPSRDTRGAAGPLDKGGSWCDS
UniProt P35232: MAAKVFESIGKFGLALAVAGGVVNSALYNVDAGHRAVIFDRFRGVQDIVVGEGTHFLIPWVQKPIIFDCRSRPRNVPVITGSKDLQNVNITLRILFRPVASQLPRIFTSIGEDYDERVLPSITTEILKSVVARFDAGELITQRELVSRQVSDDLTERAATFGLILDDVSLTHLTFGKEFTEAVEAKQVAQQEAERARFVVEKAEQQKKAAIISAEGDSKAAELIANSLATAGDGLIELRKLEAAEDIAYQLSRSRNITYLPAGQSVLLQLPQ
UniProt Q96S52: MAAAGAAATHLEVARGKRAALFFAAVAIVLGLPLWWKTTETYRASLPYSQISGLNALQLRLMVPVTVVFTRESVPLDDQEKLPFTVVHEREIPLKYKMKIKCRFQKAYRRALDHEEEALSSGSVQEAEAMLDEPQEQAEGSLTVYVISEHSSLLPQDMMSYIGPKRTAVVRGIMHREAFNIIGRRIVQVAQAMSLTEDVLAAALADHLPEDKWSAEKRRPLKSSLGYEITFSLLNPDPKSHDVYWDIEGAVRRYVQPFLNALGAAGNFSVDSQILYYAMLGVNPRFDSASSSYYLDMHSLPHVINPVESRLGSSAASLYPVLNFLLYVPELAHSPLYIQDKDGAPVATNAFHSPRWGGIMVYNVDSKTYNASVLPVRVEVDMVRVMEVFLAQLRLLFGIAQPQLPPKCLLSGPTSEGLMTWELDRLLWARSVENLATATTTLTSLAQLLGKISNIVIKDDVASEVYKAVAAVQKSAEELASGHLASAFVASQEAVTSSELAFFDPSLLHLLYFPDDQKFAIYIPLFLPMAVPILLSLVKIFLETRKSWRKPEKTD
UniProt Q9UBF8: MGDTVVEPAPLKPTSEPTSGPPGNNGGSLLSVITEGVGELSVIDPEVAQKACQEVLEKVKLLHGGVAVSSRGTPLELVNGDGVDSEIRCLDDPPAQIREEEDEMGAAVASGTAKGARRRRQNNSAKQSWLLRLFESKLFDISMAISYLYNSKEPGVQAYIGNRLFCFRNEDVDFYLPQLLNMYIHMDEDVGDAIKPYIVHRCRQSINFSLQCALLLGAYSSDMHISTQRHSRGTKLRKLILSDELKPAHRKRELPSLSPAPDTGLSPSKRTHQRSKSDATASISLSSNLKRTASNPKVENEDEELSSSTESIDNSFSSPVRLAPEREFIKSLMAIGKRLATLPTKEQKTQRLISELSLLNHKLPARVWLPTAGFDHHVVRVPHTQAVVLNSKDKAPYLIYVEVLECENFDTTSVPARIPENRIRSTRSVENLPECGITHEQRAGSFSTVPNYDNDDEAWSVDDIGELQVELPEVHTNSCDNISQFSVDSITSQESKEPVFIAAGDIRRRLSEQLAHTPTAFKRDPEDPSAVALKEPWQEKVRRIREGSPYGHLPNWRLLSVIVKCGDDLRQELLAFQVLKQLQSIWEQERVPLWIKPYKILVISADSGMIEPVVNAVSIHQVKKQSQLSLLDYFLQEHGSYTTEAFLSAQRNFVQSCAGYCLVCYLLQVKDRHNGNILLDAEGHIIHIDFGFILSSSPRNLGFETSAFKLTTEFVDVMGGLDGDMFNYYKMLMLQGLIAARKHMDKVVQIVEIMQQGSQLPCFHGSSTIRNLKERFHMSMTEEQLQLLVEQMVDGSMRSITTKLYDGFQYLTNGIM
UniProt Q01970, whole entry, looked up: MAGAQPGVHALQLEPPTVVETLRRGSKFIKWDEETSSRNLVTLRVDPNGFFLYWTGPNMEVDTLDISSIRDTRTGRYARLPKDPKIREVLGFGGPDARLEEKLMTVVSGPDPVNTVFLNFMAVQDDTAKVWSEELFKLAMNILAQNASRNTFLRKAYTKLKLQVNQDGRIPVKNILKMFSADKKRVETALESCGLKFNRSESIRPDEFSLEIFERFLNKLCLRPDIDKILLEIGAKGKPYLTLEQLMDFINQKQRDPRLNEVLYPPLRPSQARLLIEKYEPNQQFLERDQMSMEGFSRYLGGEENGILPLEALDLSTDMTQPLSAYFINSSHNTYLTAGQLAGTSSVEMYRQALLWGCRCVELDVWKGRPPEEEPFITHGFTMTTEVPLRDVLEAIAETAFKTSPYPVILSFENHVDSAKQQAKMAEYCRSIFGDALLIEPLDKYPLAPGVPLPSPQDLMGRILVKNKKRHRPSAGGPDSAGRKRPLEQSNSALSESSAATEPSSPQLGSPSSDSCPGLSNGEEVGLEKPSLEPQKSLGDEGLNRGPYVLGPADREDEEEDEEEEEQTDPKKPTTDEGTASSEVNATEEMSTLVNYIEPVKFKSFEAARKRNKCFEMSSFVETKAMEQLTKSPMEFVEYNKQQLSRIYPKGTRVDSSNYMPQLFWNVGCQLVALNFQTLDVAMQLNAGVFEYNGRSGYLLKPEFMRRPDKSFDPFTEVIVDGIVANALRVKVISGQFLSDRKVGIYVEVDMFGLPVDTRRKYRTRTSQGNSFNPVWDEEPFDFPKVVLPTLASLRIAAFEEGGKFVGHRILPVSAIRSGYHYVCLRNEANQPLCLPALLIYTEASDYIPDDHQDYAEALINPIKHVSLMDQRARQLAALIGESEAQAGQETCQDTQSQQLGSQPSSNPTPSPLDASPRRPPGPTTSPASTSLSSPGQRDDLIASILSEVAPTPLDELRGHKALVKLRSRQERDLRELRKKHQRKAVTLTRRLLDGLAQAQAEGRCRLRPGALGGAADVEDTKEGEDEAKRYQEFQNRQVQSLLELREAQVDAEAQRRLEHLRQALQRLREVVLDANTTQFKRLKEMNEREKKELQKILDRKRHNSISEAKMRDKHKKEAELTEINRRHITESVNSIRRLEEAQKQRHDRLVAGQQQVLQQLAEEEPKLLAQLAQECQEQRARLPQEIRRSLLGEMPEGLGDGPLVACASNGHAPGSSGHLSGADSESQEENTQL
UniProt Q8IWS0: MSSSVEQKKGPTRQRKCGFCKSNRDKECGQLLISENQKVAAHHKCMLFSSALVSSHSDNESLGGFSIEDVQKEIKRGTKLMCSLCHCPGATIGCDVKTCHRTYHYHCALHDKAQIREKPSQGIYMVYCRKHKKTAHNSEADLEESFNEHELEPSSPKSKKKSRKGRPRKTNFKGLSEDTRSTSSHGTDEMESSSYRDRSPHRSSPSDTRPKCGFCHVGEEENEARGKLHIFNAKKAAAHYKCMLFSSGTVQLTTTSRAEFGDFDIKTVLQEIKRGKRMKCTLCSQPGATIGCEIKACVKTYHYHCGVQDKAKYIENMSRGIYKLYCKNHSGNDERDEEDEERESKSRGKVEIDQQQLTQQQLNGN

Compound in assay [1]: Cc1nc(Nc2n[nH]c3c2CN(C(=O)N[C@H](CN(C)C)c2ccccc2)C3(C)C)c2sccc2n1
The method, boiled down:
as §1

Compound in a further assay: Cc1nc(Nc2ncc(C(=O)Nc3c(C)cccc3Cl)s2)cc(N2CCN(CCO)CC2)n1 [dasatinib]
Put shortly:
as §1

Compound in assay [2]: Cc1ncc(-c2ccnc(Nc3ccc(S(C)(=O)=O)cc3)n2)n1C(C)C
Put shortly: as §1

Compound in assay [3]: Cn1cc(-c2ccc3c(c2)CCN3C(=O)Cc2cccc(C(F)(F)F)c2)c2c(N)ncnc21
The method, boiled down: as §1

Compound in the next assay: Cn1cc(CNCC2CCN(c3ncc(C(=O)NO)cn3)CC2)c2ccccc21 [quisinostat]
Put shortly: as §1

Compound in a further assay: Cn1cncc1[C@@](N)(c1ccc(Cl)cc1)c1ccc2c(c1)c(-c1cccc(Cl)c1)cc(=O)n2C [tipifarnib]
The method, boiled down:
as §1

Compound in assay [4]: NC(=O)Nc1cc(-c2cccc(F)c2)sc1C(=O)N[C@H]1CCCNC1
The method, boiled down:
as §1

Compound in assay [5]: NC(=O)c1cnc(N[C@@H]2CCCC[C@@H]2N)nc1Nc1cccc(-n2nccn2)c1
Put shortly: as §1

Compound in assay [6]: NC1(c2ccc(-c3nc4ccn5c(=O)[nH]nc5c4cc3-c3ccccc3)cc2)CCC1
The method, boiled down:
as §1

Compound in assay [7]: NCC(=O)Nc1ccc(-n2nc(C(F)(F)F)cc2-c2ccc3c(ccc4ccccc43)c2)cc1
Put shortly:
as §1

Compound in the next assay: O=C(CCCCCCC(=O)Nc1ccccc1)NO [vorinostat]
The method, boiled down:
as §1

Compound in another assay: O=C(O)c1ccc2c(c1)nc(Nc1cccc(Cl)c1)c1ccncc12 [silmitasertib]
Put shortly:
as §1

Compound in assay [8]: O=C1NC(=O)C(c2cnc3ccccn23)=C1c1cn2c3c(cc(F)cc13)CN(C(=O)N1CCCCC1)CC2
Put shortly: as §1

Compound in a further assay: c1cn2cc(-c3ccc4cn[nH]c4c3)nc(Nc3ccc(N4CCOCC4)cc3)c2n1 [entospletinib]
Put shortly: as §1

The list shows a part of the results.

In the case of PICALM (UniProt Q13492), the log2 fold change with nilotinib is inactive: -0.012; in [1], inactive: -0.01; in the assay with dasatinib, inactive: -0.036; in assay [2] it was inactive: -0.009; in assay [3], inactive: 0.001; with quisinostat it was inactive: -0.003. The log2 fold change with tipifarnib is inactive: -0.042; in assay [4] it was inactive: -0.018; in assay [5] it was inactive: 0.012; in assay [6] it was inactive: 0.007; in [7] it was inactive: 0.02; with vorinostat it was inactive: 0.048. Besides, the log2 fold change with silmitasertib was inactive: 0.003; in assay [8], inactive: -0.019; with entospletinib, inactive: -0.005.
PHKG2 (UniProt P15735): the log2 fold change with nilotinib was inactive: -0.022; in assay [1] it was active: 0.598; with dasatinib, inactive: -0.03; in [2], inactive: 0.046; in assay [3], inactive: 0.037; with quisinostat it was inactive: -0.069. The log2 fold change was inactive: 0.038 with tipifarnib; active: 0.979 in [4]; inactive: -0.042 in [5]; inactive: -0.073 in assay [6]; inactive: -0.029 in [7]; inactive: 0.013 with vorinostat. For the same target, the log2 fold change with silmitasertib is inactive: 0.008; in assay [8] it was inactive: -0.022; with entospletinib it was inactive: 0.026.
Regarding PHF10 (UniProt Q8WUB8), the log2 fold change with nilotinib is inactive: 0.007; in assay [1] it was inactive: 0.066; with dasatinib it was inactive: 0.028; in assay [2], inactive: -0.026; in assay [3], inactive: -0.001; in the assay with quisinostat it was inactive: -0.023. Besides, the log2 fold change with tipifarnib is inactive: -0.02; in assay [4], inactive: 0.065; in assay [5], inactive: 0.007; in assay [6] it was inactive: -0.006; in assay [7] it was inactive: -0.007; in the assay with vorinostat, inactive: 0.024. The log2 fold change was inactive: -0.047 with silmitasertib, inactive: 0.054 in [8] and inactive: 0.015 in the assay with entospletinib.
Consider PLCB2 (UniProt Q00722), for which the log2 fold change is inactive: -0.091 in the assay with nilotinib; inactive: -0.08 in assay [1]; inactive: 0.081 with dasatinib; inactive: 0.032 in [2]; inactive: 0.104 in assay [3]; inactive: -0.104 in the assay with quisinostat. Besides, the log2 fold change in the assay with tipifarnib was inactive: -0.009; in [4], inactive: 0.002; in assay [5], inactive: -0.197; in [6], inactive: -0.002; in [7] it was inactive: 0.04; with vorinostat it was inactive: 0.05. Also, the figures for the log2 fold change (with silmitasertib; in assay [8]; in the assay with entospletinib) were inactive: -0.05, inactive: 0.089 and inactive: -0.009, respectively.
As to PICK1 (UniProt Q9NRD5), the log2 fold change with nilotinib was inactive: 0.018; in [1], inactive: -0.061; with dasatinib it was inactive: 0.047; in assay [2] it was inactive: -0.009; in assay [3] it was inactive: 0.021; in the assay with quisinostat, inactive: 0.105. Further, the log2 fold change with tipifarnib is inactive: -0.028; in [4] it was inactive: -0.007; in [5] it was inactive: 0.008; in [6], inactive: -0.001; in [7], inactive: -0.062; with vorinostat, inactive: -0.09. Moreover, the values for the log2 fold change (with silmitasertib; in assay [8]; with entospletinib) were inactive: -0.079, inactive: 0.008 and inactive: -0.013, respectively.
Consider PHB (UniProt P35232), for which the log2 fold change with nilotinib was inactive: 0.001; in [1] it was inactive: 0.066; with dasatinib, inactive: 0.049; in assay [2], inactive: -0.006; in [3], inactive: -0.006; with quisinostat, inactive: 0.03. Further, the log2 fold change with tipifarnib is inactive: -0.007; in assay [4], inactive: -0.054; in [5] it was inactive: -0.008; in assay [6], inactive: 0.019; in assay [7], inactive: -0.13; with vorinostat it was inactive: 0.126. For the same target, the log2 fold change with silmitasertib was inactive: 0.076; in assay [8] it was inactive: -0.04; with entospletinib it was inactive: 0.007.
As for PIGS (UniProt Q96S52), the log2 fold change in the assay with nilotinib was inactive: -0.002; in assay [1] it was inactive: -0.03; in the assay with dasatinib, inactive: -0.01; in assay [2] it was inactive: 0.002; in assay [3], inactive: -0.014; in the assay with quisinostat, inactive: 0.019. The log2 fold change in the assay with tipifarnib is inactive: -0.038; in assay [4], inactive: 0.01; in assay [5], inactive: 0.007; in assay [6], inactive: -0.007; in assay [7] it was inactive: 0.002; with vorinostat, inactive: 0.175. Further, the log2 fold change in the assay with silmitasertib is inactive: 0.02; in assay [8], inactive: 0.027; with entospletinib, inactive: -0.025.
For the target PI4KB (UniProt Q9UBF8), the log2 fold change in the assay with nilotinib is inactive: 0.003; in [1], inactive: 0.145; in the assay with dasatinib, inactive: 0.002; in assay [2], inactive: 0.165; in assay [3], inactive: 0.013; with quisinostat, inactive: -0.072. Also, the log2 fold change with tipifarnib is inactive: -0.024; in [4], inactive: -0.026; in [5], inactive: -0.049; in assay [6] it was inactive: -0.014; in [7], inactive: -0.085; with vorinostat, inactive: -0.132. Also, the log2 fold change is inactive: 0.151 in the assay with silmitasertib, inactive: -0.044 in assay [8] and inactive: 0.184 with entospletinib.
With PLCB3 (UniProt Q01970), the log2 fold change is inactive: -0.015 with nilotinib; inactive: -0.011 in assay [1]; inactive: 0.009 in the assay with dasatinib; inactive: -0.012 in assay [2]; inactive: -0.003 in assay [3]; inactive: 0.034 with quisinostat. The log2 fold change in the assay with tipifarnib is inactive: -0.008; in assay [4], inactive: 0.01; in [5], inactive: 0.01; in assay [6], inactive: 0.009; in [7] it was inactive: -0.021; in the assay with vorinostat it was inactive: 0.017. Besides, the log2 fold change with silmitasertib was inactive: -0.006; in assay [8] it was inactive: -0.007; in the assay with entospletinib, inactive: -0.016.
On to PHF6 (UniProt Q8IWS0), for which the log2 fold change with nilotinib is inactive: 0.022; in assay [1] it was inactive: 0.031; with dasatinib, inactive: 0; in assay [2], inactive: 0.003; in [3], inactive: 0.024; in the assay with quisinostat, inactive: 0.101. Also, the log2 fold change is inactive: -0.046 in the assay with tipifarnib; inactive: -0.016 in [4]; inactive: 0.014 in assay [5]; inactive: 0.053 in assay [6]; inactive: -0.021 in assay [7]; inactive: 0.013 in the assay with vorinostat. Further, the log2 fold change is inactive: -0.004 with silmitasertib, inactive: 0.166 in assay [8] and inactive: 0.031 with entospletinib.
